# Experimental data as given in the supplement of paper PMC12819154, “High-throughput peptide-centric local stability assay extends protein–ligand identification to membrane proteins, tissues and bacteria” (Nature Structural & Molecular Biology, 2025).
# Amino acid sequences for entries named in this document (tags omitted). A change or cut given only in a name is not applied to a line headed by its entry.
# UniProt Q9D1B9, whole entry: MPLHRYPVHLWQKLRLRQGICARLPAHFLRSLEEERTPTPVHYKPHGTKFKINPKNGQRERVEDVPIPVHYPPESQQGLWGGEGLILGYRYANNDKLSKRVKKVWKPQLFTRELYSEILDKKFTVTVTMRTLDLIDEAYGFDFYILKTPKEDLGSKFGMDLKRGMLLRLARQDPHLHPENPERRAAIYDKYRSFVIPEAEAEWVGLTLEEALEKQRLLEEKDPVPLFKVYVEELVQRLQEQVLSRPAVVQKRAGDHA
# UniProt Q9D1Z3: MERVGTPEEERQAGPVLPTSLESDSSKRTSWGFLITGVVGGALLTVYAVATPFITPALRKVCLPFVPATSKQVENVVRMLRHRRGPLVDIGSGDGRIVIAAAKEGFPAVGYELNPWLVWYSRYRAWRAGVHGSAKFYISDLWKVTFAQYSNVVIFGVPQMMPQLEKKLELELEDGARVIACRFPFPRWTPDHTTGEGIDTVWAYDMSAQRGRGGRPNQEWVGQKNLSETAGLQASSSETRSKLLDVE
# UniProt Q9D1G5: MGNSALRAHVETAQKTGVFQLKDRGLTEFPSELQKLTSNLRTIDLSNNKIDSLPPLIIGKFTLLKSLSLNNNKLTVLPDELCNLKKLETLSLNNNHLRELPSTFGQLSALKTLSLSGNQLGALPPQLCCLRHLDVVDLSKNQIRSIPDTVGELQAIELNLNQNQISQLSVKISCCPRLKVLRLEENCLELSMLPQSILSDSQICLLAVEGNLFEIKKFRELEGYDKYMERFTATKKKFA
# UniProt Q9D8X1: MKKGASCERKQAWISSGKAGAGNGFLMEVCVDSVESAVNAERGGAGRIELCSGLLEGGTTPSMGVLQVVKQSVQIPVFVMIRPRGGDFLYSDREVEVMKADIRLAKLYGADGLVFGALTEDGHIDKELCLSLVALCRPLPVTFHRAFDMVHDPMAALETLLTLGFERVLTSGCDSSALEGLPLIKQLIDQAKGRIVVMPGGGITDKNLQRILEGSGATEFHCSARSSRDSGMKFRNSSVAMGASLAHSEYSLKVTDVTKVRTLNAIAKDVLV
# UniProt Q9D945: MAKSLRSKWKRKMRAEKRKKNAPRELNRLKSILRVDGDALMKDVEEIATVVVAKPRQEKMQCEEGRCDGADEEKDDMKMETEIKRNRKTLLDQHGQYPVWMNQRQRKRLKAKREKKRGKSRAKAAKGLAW
# UniProt Q9D787: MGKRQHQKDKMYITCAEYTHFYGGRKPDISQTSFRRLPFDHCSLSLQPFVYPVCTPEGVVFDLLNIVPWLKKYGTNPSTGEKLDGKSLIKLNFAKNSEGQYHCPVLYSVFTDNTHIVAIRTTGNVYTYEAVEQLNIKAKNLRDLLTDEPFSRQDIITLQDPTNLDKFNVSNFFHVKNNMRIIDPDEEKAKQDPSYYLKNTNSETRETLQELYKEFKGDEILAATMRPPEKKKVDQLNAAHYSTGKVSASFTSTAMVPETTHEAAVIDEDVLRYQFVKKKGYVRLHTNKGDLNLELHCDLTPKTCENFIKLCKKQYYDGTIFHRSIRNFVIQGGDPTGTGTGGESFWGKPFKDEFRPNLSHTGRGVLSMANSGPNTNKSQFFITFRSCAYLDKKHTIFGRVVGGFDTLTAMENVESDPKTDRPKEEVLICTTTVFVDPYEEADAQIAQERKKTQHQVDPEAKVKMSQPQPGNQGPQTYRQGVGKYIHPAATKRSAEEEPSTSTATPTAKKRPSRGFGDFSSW
# UniProt Q9D967: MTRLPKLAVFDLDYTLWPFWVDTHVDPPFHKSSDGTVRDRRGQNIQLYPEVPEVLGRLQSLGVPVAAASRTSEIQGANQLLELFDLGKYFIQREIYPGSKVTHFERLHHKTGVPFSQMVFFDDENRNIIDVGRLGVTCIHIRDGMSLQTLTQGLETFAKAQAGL
# UniProt Q9D8T4: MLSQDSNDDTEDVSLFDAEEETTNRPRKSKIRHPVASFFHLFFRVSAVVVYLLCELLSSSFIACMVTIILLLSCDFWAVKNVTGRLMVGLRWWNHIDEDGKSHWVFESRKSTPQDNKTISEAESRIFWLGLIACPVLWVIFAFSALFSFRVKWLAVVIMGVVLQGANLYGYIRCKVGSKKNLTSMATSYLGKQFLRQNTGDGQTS
# UniProt Q9D3B1: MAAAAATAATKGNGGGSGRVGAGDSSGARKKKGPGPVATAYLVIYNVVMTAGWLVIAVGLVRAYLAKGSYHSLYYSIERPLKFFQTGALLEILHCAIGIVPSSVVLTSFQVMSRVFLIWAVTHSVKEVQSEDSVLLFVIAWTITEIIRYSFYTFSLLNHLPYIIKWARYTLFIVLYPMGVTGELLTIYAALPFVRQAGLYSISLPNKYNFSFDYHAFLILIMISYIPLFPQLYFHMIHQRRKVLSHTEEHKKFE
# UniProt Q9D975: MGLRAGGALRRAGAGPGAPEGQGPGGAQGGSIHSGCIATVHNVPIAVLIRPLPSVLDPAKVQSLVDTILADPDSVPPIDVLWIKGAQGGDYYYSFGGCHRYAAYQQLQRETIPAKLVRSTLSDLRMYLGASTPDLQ
# UniProt Q9D902: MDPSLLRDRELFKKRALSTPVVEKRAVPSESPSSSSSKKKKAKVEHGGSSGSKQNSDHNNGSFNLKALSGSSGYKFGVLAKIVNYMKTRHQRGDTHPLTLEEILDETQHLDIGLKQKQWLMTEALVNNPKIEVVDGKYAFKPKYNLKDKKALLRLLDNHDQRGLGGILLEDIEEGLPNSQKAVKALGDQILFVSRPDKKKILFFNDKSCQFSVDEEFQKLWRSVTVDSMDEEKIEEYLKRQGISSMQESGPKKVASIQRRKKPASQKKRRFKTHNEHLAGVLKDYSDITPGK
# UniProt Q9D358: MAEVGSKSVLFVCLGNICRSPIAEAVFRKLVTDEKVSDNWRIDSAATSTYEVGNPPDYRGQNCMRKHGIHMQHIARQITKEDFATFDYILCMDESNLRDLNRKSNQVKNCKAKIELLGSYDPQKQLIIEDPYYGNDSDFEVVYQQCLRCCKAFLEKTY
# This is one part of the list. Most values lie at the level of the controls, where differences are scatter.
# Compound: CN[C@@H]1C[C@H]2O[C@@](C)([C@@H]1OC)n1c3ccccc3c3c4c(c5c6ccccc6n2c5c31)C(=O)NC4 [staurosporine]
# Assay: log2 fold change of tryptic peptide abundance, ligand vs vehicle (limited proteolysis) (log2 ratio); higher = more trypsin-susceptible (destabilized)
# Details: ligand concentration: 20 uM; sample: mouse liver crude lysate; replicate design: treated separately
row,Target,log2 fold change
1,"UniProt Q9D1B9 (peptide sequence: YPVHLWQK, peptide start residue: 6)",0.57
2,"UniProt Q9D1Z3 (peptide sequence: GGRPNQEWVGQK, peptide start residue: 213)",-0.114
3,"UniProt Q9D1G5 (peptide sequence: AHVETAQK, peptide start residue: 8)",0.517
4,"UniProt Q9D8X1 (peptide sequence: KQAWISSGK, peptide start residue: 10)",-0.0853
5,"UniProt Q9D945 (peptide sequence: METEIKR, peptide start residue: 79)",-0.226
6,"UniProt Q9D787 (peptide sequence: KKTQHQVDPEAK, peptide start residue: 450)",-0.535
7,"UniProt Q9D967 (peptide sequence: LQSLGVPVAAASR, peptide start residue: 58)",-0.195
8,"UniProt Q9D8T4 (peptide sequence: NLTSMATSYLGK, peptide start residue: 181)",0.232
9,"UniProt Q9D3B1 (peptide sequence: VGAGDSSGAR, peptide start residue: 20)",-0.0465
10,"UniProt Q9D975 (peptide sequence: GAQGGDYYYSFGGCHR, peptide start residue: 85)",-0.0691
11,"UniProt Q9D902 (peptide sequence: LLDNHDQR, peptide start residue: 155)",-0.815
12,"UniProt Q9D358 (peptide sequence: AFLEKTY, peptide start residue: 152)",0.27
